# Source: PubChem BioAssay AID1159584 (Peter MacCallum Cancer Centre, 2016)
# Aim: 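Knock-downs that harm CDH1-null cells more than parental MCF10A cells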 (primary screen)
# System: human MCF10A breast epithelial cells, parental and CDH1-null
# Knock-down reagent: siRNA against human genes
# Measurement: 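Cell viability by CellTiter-Glo ATP luminescence, each line scaled to the mean of mock wells across plates, then CDH1-null over parental ratio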
# Direction: CDH1-null / parental viability ratio: higher = CDH1-null cells survive relatively better than parental; CDH1-null viability vs mock: higher = more viable CDH1-null cells; parental viability vs mock: higher = more viable parental cells
# Here is one part, drawn at random, of about 18,000 deposited reagents. Reagents against one gene are numbered here. No sequences are given here. The record does not give: the amount of reagent, the time to read-out.
target gene,siRNA no.,CDH1-null / parental viability ratio,CDH1-null viability vs mock (fraction of mock),parental viability vs mock (fraction of mock)
HDHD5 (haloacid dehalogenase like hydrolase domain containing 5),1,1.25,1.25,1
IL1R2 (interleukin 1 receptor type 2),1,1.05,1.18,1.12
POLR2B (RNA polymerase II subunit B),1,1.17,0.42,0.36
PGA4 (pepsinogen A4),1,0.95,0.56,0.59
ZEB2 (zinc finger E-box binding homeobox 2),1,1.15,0.83,0.72
NECAB2 (N-terminal EF-hand calcium binding protein 2),1,1.23,0.86,0.7
NSUN5P1 (NSUN5 pseudogene 1),1,1.12,0.74,0.66
LHFPL4 (LHFPL tetraspan subfamily member 4),1,1.06,1.03,0.97
CPLX1 (complexin 1),1,1.09,1.07,0.98
TOMM22 (translocase of outer mitochondrial membrane 22),1,1.21,1.04,0.86
STATH (statherin),1,1.1,0.67,0.61
S100A5 (S100 calcium binding protein A5),1,1.08,0.64,0.59
SLC25A38,1,0.94,0.94,1
MGA (MAX dimerization protein MGA),1,0.84,0.42,0.5
DSN1 (DSN1 component of MIS12 kinetochore complex),1,1.05,0.92,0.88
ADAMTSL2 (ADAMTS like 2),1,1.08,0.82,0.76
RIBC1 (RIB43A domain with coiled-coils 1),1,0.95,0.74,0.78
PVR (PVR cell adhesion molecule),1,1.3,0.9,0.69
NEGR1 (neuronal growth regulator 1),1,0.86,0.7,0.81
HMGB1P1 (high mobility group box 1 pseudogene 1),1,0.84,0.67,0.8
MYO9B (myosin IXB),1,1.15,0.84,0.73
C11orf68 (chromosome 11 open reading frame 68),1,1.62,0.55,0.34
COX17 (cytochrome c oxidase copper chaperone COX17),1,0.73,0.58,0.79
DLX3 (distal-less homeobox 3),1,1.05,0.99,0.94
CDC5L (cell division cycle 5 like),1,1.03,0.4,0.39
SMAD3 (SMAD family member 3),1,0.84,0.86,1.02
ZNF593 (zinc finger protein 593),1,1.17,0.89,0.76
SPINK8 (serine peptidase inhibitor Kazal type 8 (putative)),1,1.01,1,0.99
ANAPC15 (anaphase promoting complex subunit 15),1,1.19,0.87,0.73
TTLL7 (tubulin tyrosine ligase like 7),1,0.97,1.05,1.08
LRP10 (LDL receptor related protein 10),1,0.99,1.05,1.06
SPINK5 (serine peptidase inhibitor Kazal type 5),1,0.93,0.54,0.58
DRAP1 (DR1 associated protein 1),1,0.92,0.7,0.76
APCDD1L (APC down-regulated 1 like),1,1.42,0.34,0.24
FBXL16 (F-box and leucine rich repeat protein 16),1,1.14,0.84,0.74
LRP6 (LDL receptor related protein 6),1,0.9,0.9,1
SPRING1 (SREBF pathway regulator in golgi 1),1,0.96,0.8,0.83
POTED (POTE ankyrin domain family member D),1,0.85,0.71,0.84
CTBP2 (C-terminal binding protein 2),1,0.89,0.84,0.94
ARL8B (ARF like GTPase 8B),1,1.08,0.8,0.74
NPR3 (natriuretic peptide receptor 3),1,0.77,0.82,1.07
NPR3 (natriuretic peptide receptor 3),2,1.11,1,0.9

The list goes on (4 carried over from the part before).
target gene,siRNA no.,CDH1-null / parental viability ratio,CDH1-null viability vs mock (fraction of mock),parental viability vs mock (fraction of mock)
CTBP2 (C-terminal binding protein 2),1,0.89,0.84,0.94
ARL8B (ARF like GTPase 8B),1,1.08,0.8,0.74
NPR3 (natriuretic peptide receptor 3),1,0.77,0.82,1.07
NPR3 (natriuretic peptide receptor 3),2,1.11,1,0.9
DOCK7 (dedicator of cytokinesis 7),1,1,0.28,0.28
GNRH2 (gonadotropin releasing hormone 2),1,1.39,0.86,0.62
ZNF117 (zinc finger protein 117),1,1.13,0.54,0.48
RSU1 (Ras suppressor protein 1),1,1.04,0.75,0.72
GTF3C5 (general transcription factor IIIC subunit 5),1,1.1,0.88,0.8
RER1 (retention in endoplasmic reticulum sorting receptor 1),1,1.16,0.64,0.55
CYP27A1 (cytochrome P450 family 27 subfamily A member 1),1,0.83,0.65,0.78
SERPINB13 (serpin family B member 13),1,0.75,0.6,0.8
MKRN3 (makorin ring finger protein 3),1,1.03,0.97,0.94
CHRM1 (cholinergic receptor muscarinic 1),1,0.92,0.81,0.88
MKKS (MKKS centrosomal shuttling protein),1,1.25,0.74,0.59
TMPRSS4 (transmembrane serine protease 4),1,1.13,0.88,0.78
ARSH (arylsulfatase family member H),1,1.04,0.99,0.95
ANKRD22 (ankyrin repeat domain 22),1,0.88,0.78,0.89
ZNF501 (zinc finger protein 501),1,0.72,0.58,0.81
RHO (rhodopsin),1,0.69,0.66,0.96
ASNS (asparagine synthetase (glutamine-hydrolyzing)),1,0.98,1.15,1.17
TCIRG1,1,1.05,0.63,0.6
MIA2 (MIA SH3 domain ER export factor 2),1,1.09,0.89,0.82
MIA2 (MIA SH3 domain ER export factor 2),2,0.9,0.87,0.97
KRABD3 (KRAB domain containing 3),1,0.85,0.7,0.82
CCDC158 (coiled-coil domain containing 158),1,1.05,0.46,0.44
SLC40A1,1,0.94,1.05,1.12
ZNF524 (zinc finger protein 524),1,0.95,0.57,0.6
DEFB132 (defensin beta 132),1,0.85,0.47,0.55
"CCT8L1P (chaperonin containing TCP1 subunit 8 like 1, pseudogene)",1,0.85,0.74,0.87
